Measured data: PubChem BioAssay AID1259254 (NCATS, 2017)
In all, the deposit lists about 59,000 reagents; this is an unselected part. About 1,550 of them (2.6%) count as active. 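G2 share is only a proxy for re-replication; each gene was hit by three separate siRNAs, and active genes were retested.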 Entries without a mark were called inactive. Further read-outs or replicates are left out here. The record does not give: the amount of reagent.

Purpose: 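Genome-wide screen for genes that prevent DNA re-replication in cancer cells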 (primary screen)
Cells: human HCT116 colorectal cancer cells
Reagent: single siRNA against human genes
Duration: 3 days
Detection: 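Nuclei stained with Hoechst and imaged; cell-cycle phase assigned by DNA content; G2 share scaled per plate, non-targeting siRNA 0%, GMNN siRNA 100%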
Reading the numbers: G2 robust z-score and G2 cells, % of GMNN control: higher = more G2 cells, more excess DNA replication
Hit rule: 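Active siRNAs have a G2 robust z of 5 or more median absolute deviations over the median, which in these data means about 38% or higher of GMNN control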

After knock-down of HMHB1 [SID160733682], the screen gave G2 robust z-score -0.0774; G2 cells, % of GMNN control 2.42. Against HMHB1 [SID160733683], the entry reads G2 robust z-score 1.58; G2 cells, % of GMNN control 14.1. For HMHB1 [SID160746749] the deposit lists G2 robust z-score 1.37; G2 cells, % of GMNN control 12.6. For SIK3 [SID160732761], the entry reads G2 robust z-score 0.622; G2 cells, % of GMNN control 7.35. SIK3 [SID160736170] scored G2 robust z-score -0.407; G2 cells, % of GMNN control 0.102. SIK3 [SID160736171] gave G2 robust z-score 0.815; G2 cells, % of GMNN control 8.7.

For ZNF165 [SID160719216], the values are G2 robust z-score -1.08; G2 cells, % of GMNN control -4.63. ZNF165 [SID160719217] showed G2 robust z-score -1.19; G2 cells, % of GMNN control -5.42. ZNF165 [SID160719218] showed G2 robust z-score 0.59; G2 cells, % of GMNN control 7.12.

Single entries from the entries so far.
Value for HMHB1 [SID160733682] in “G2 robust z-score”: -0.0774
Result for SIK3 [SID160736170] under “G2 cells, % of GMNN control”: 0.102

The listing continues.
Knock-down of FAM110D [SID160749789] gave: G2 robust z-score -0.417; G2 cells, % of GMNN control 0.0319. Knock-down of FAM110D [SID160749790] resulted in: G2 robust z-score -0.945; G2 cells, % of GMNN control -3.68. For FAM110D [SID160749792], the entry reads G2 robust z-score -0.374; G2 cells, % of GMNN control 0.333. Depletion of PHF1 [SID160714246] gave: G2 robust z-score -0.024; G2 cells, % of GMNN control 2.8. PHF1 [SID160714247] showed G2 robust z-score -0.204; G2 cells, % of GMNN control 1.53. Depletion of PHF1 [SID160731411] gave: G2 robust z-score 1.09; G2 cells, % of GMNN control 10.6.

With knock-down of ZNF226 [SID160719307], the record shows G2 robust z-score 1.19; G2 cells, % of GMNN control 11.3. Knock-down of ZNF226 [SID160719308] resulted in: G2 robust z-score 2.89; G2 cells, % of GMNN control 23.3. After knock-down of ZNF226 [SID160731894], the record shows G2 robust z-score -0.896; G2 cells, % of GMNN control -3.34.
